# ± gives the standard error. Many entries were measured with a wide error.
# B1: glmS ribozyme (parent)
# chain: AUAAAAGCGCCAGAACUACAGAAAUGUAGUUGACGAGGAGGAGGUUUAUCGAAUUUUCGGCGGAUGCCUCCAAA
# Variants of: B1
# Experiment: self-cleavage kobs at 160 uM GlcN6P; higher = faster cleavage; RNA array
# Settings: with glucosamine-6-phosphate
# Outline: (§1)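 Tiles bearing barcoded ribozyme variants, transcribed in situ by E. coli RNA polymerase on sequenced MiSeq chips, were imaged over ~14 h at 37 °C using a hybridised Cy3 probe. Glucosamine-6-phosphate was supplied at 40 μM to 10 mM in HEPES/KCl/Mg(OAc)2 buffer. kobs came from one- or two-exponential decay fits to normalised per-tile medians, and weighted Michaelis–Menten fits then provided kcat and KM.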
row,Variant,self-cleavage kobs at 160 uM GlcN6P [s⁻¹]
1,U47G C50G,3.72e-05 ± 2e-05
2,A48U C70G,1.94e-05 ± 1.7e-05
3,U49A C50U C61G,2.81e-05 ± 2.2e-05
4,C50G U55G C67G,2.71e-05 ± 1.6e-05
5,C50U C70A,2.54e-05 ± 1.7e-05
6,C50U U57C C67G,3.42e-05 ± 3.1e-05
7,U55G A64C,2.55e-05 ± 2.2e-05
8,U57A C68G,2.82e-05 ± 1.5e-05
9,C58A G62C C70G,2.82e-05 ± 2e-05
10,C58U C61G C67U,3.82e-05 ± 2.5e-05
11,G59A,< 1e-05
12,G59A C67G,1.63e-05 ± 1.3e-05
13,C67A C68A,2.57e-05 ± 2e-05
14,C67A C70A,2.89e-05 ± 1.5e-05
15,C67A U69G,3.02e-05 ± 1.6e-05
16,C67U C68A,2.18e-05 ± 1.3e-05
17,C68U C71U,1.37e-05 ± 9e-06

# Variants of: B1
# Experiment: self-cleavage kobs at 10000 uM GlcN6P; higher = faster cleavage; RNA array
# Settings: with glucosamine-6-phosphate
# Outline: as §1
row,Variant,self-cleavage kobs at 10000 uM GlcN6P [s⁻¹]
1,A48U C70G,1.44e-05 ± 9.1e-06
2,U57A C68G,1.49e-05 ± 1.2e-05
3,A6G G40A,2.1e-05 ± 1.1e-05
4,C10U U31G,2.12e-05 ± 1.5e-05
5,C11G A14G,1.44e-05 ± 1.4e-05
6,A12G G13U U49G C58U U69G C71G,1.93e-05 ± 1.5e-05

# Variants of: B1
# Experiment: self-cleavage kobs at 2500 uM GlcN6P; higher = faster cleavage; RNA array
# Settings: with glucosamine-6-phosphate
# Outline: as §1
row,Variant,self-cleavage kobs at 2500 uM GlcN6P [s⁻¹]
1,C50G U55G C67G,3.54e-05 ± 2.3e-05
2,C58A G62C C70G,3.21e-05 ± 2.2e-05
3,C58U C61G C67U,4.74e-05 ± 2.7e-05
4,A6C C67U,2.14e-05 ± 1.8e-05
5,A6G C16G,2.2e-05 ± 1.8e-05
6,A6G C61G C71G,4.33e-05 ± 2.5e-05
7,A6G G40A,2.09e-05 ± 2.1e-05
8,A6U C67A C68A,2.31e-05 ± 2e-05
9,A6U U31C,2.61e-05 ± 1.7e-05
10,G7A C70U,1.9e-05 ± 9.7e-06
11,C8A U31A C50G A53U C70A,3.55e-05 ± 2.9e-05
12,C8U C16U C50G G60A G66U,8.21e-05 ± 4.8e-05
13,C8U G37U C71G,3.77e-05 ± 3.2e-05
14,G9A A14G,1.43e-05 ± 1.3e-05
15,G9A A42G,1.81e-05 ± 1.7e-05
16,C10A A52U C68A,4.7e-05 ± 2.5e-05
17,C10A C67G C68A,2.9e-05 ± 1.8e-05
18,C10A C71A,1.87e-05 ± 1.8e-05
19,C10A G51A C61G A64C,5.09e-05 ± 2.9e-05
20,C10A G51U C68G,6.99e-05 ± 5.1e-05
21,C10A U55A C67G,3.99e-05 ± 2.9e-05
22,C10G C67A,2.61e-05 ± 2.2e-05

row,Variant,self-cleavage kobs at 2500 uM GlcN6P [s⁻¹]
1,C10U A14U C70G,3.73e-05 ± 2.7e-05
2,C10U A15G C67G,1.97e-05 ± 1.6e-05
3,C10U A15G G60U C61U U69A C70G,3.18e-05 ± 3e-05
4,C10U C50U C70U,2.41e-05 ± 2.1e-05
5,C10U C70A C71U,2.65e-05 ± 2e-05
6,C10U G29A G37U C50A C68A,2.33e-05 ± 1.9e-05
7,C10U G63U C68G,4.77e-05 ± 2.9e-05
8,C10U U31G,2.05e-05 ± 1.4e-05
9,C11A A14C A53G,2.14e-05 ± 1.7e-05
10,C11A A53C U69G,0.000101 ± 5.5e-05
11,C11A G66A,5.6e-05 ± 3.3e-05
12,C11A U55A U56C,2.44e-05 ± 1.5e-05
13,C11A U65G,2.63e-05 ± 2.3e-05
14,C11G A14G,1.6e-05 ± 1.6e-05
15,C11G A52G C68U,8.75e-05 ± 6.2e-05
16,C11G U69G C71U,2.55e-05 ± 2.1e-05
17,C11U A12C A36U C50G G63C G66A,3.11e-05 ± 2.9e-05
18,C11U A12G A39C C71U,3.52e-05 ± 2.1e-05
19,C11U G29U G40A,1.86e-05 ± 1.8e-05
20,C11U U30A C67U,0.000345 ± 0.00019
21,C11U U49A A52U C68A,4.84e-05 ± 3.2e-05
22,A12C A33C G66A,2.59e-05 ± 1.8e-05

# Another view of part of the listing above:
row	Variant	self-cleavage kobs at 2500 uM GlcN6P [s⁻¹]
6	A6G C61G C71G	4.33e-05 ± 2.5e-05
7	A6G G40A	2.09e-05 ± 2.1e-05
8	A6U C67A C68A	2.31e-05 ± 2e-05
9	A6U U31C	2.61e-05 ± 1.7e-05
10	G7A C70U	1.9e-05 ± 9.7e-06
11	C8A U31A C50G A53U C70A	3.55e-05 ± 2.9e-05
12	C8U C16U C50G G60A G66U	8.21e-05 ± 4.8e-05
13	C8U G37U C71G	3.77e-05 ± 3.2e-05
14	G9A A14G	1.43e-05 ± 1.3e-05
15	G9A A42G	1.81e-05 ± 1.7e-05
16	C10A A52U C68A	4.7e-05 ± 2.5e-05
17	C10A C67G C68A	2.9e-05 ± 1.8e-05
18	C10A C71A	1.87e-05 ± 1.8e-05
19	C10A G51A C61G A64C	5.09e-05 ± 2.9e-05
20	C10A G51U C68G	6.99e-05 ± 5.1e-05
21	C10A U55A C67G	3.99e-05 ± 2.9e-05
22	C10G C67A	2.61e-05 ± 2.2e-05
1	C10U A14U C70G	3.73e-05 ± 2.7e-05
2	C10U A15G C67G	1.97e-05 ± 1.6e-05

# Further results.

row,Variant,self-cleavage kobs at 2500 uM GlcN6P [s⁻¹]
1,A12C A52U C70A,3.58e-05 ± 1.9e-05
2,A12C A64U,2.2e-05 ± 1.2e-05
3,A12C G32C,1.31e-05 ± 1.1e-05
4,A12C G44C,1.91e-05 ± 1.4e-05
5,A12C U54A C67U,0.0013 ± 0.00072
6,A12G A39U A53C,1.37e-05 ± 1.3e-05
7,A12G G13U A39U,1.47e-05 ± 1.5e-05
8,A12G G13U U49G C58U U69G C71G,4.63e-05 ± 2.9e-05
9,A12G G59A,1.79e-05 ± 1.6e-05
10,A12G U46A G66U,4.13e-05 ± 2.4e-05
11,A12G U57A,1.16e-05 ± 9.9e-06
12,A12U A42G U56A C67U,0.0029 ± 0.0017
13,A12U C58A C61A,3.93e-05 ± 2.9e-05
14,A12U C67G C71A,3.57e-05 ± 2.6e-05
15,A12U U30G U47G A48U U49C U69C C70G,3e-05 ± 2.9e-05
16,A12U U56G,0.0376 ± 0.022
17,G13A G62U C70G,4.03e-05 ± 3.6e-05
18,G13A U69A C70G,5.16e-05 ± 2.9e-05
19,G13C G40A,1.81e-05 ± 1.7e-05
20,G13C U54A G60U C68G,2.57e-05 ± 2.6e-05
